Measured values published in PubChem BioAssay AID1508600 (Functional Genomics Laboratory (NCATS/FGL), 2020).
Hit rate of the full screen: of about 53,000 sequences, about 3,700 (7%) were called active.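 How the source made its calls: active means gene knockdowns whose robust z-score for IL-1 alpha signal is at least 2 or at most -2, so actives lie on both sides; inactive means the rest.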 The list shows a part of the results.

Test: Components of the Cytosolic LPS Sensing Pathway: Gene Identification via Genome-wide siRNA Screen;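 further: robust z of the log signal after scaling to non-targeting control siRNA wells of the plate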
Details: RAW264.7 macrophages, IL-1a HTRF, actives lie on both sides, screened at 100 nM (by protocol), cells primed 5 h with Pam3CSK4 first
Outline: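 Read-out: IL-1a HTRF on supernatant, divided by plate negative-control median ×100, log-transformed and converted to robust z-score. Cells were RAW264.7 given 100 nM siRNA, Pam3CSK4-primed 5 hours, then LipidA-transfected 24 hour.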
With GUAUGACCAGAAGAAAAAGTT against Lrrc72 the z-score was active: -2.19. For GCUGCACGAUGCAUGGUUUTT against Asic3, the z-score was inactive: 1.43. For CCCAUAACCAGAAUUAAAGTT against Wdr64, the z-score was inactive: 0.454. In the case of CGUGGAACUCUCAACCAAGTT against Rbm14, the z-score is reported as inactive: 0.151. For GGGAUAAGAUUUUCUUGAUTT against Dock2, the z-score was inactive: 0.332. In the case of GGAGGAAAAGGCUUUUCGATT against Ccdc70, the z-score is reported as inactive: 1.04. For GGUGUGACCUCAUCUUUUUTT against Kmt5c, the z-score was inactive: -1.35. For GGCUUGAUGAAUAUUCCAUTT against Bpifa5, the z-score was inactive: 1.11. With GAUCUAGGACAGCUUAGAUTT against Avpr1b the z-score was inactive: -0.955. With CCAUCAAUGUAAUCUUCCATT against Zfp386 the z-score was inactive: -0.362. With GGAAAAUCAAGAUGAGAUATT against Stag2 the z-score was inactive: -1.21. In the case of CGAUAAGAACACCUAUAUUTT against Sf3b1, the z-score is reported as active: -3.26. With GGAAAGAGGAAAACUCUCCTT against Pole4 the z-score was inactive: 1.05. For GGCCUGAAAUCAAACGGGUTT against Smarcd1, the z-score was inactive: 1.04. With GGCCAUUUCAAGACUCUCGTT against Cd109 the z-score was inactive: 0.347. In the case of GAAUAUGUGGCUCUGGGUCTT against G6pc3, the z-score is reported as inactive: -0.414. With GGCUUAUGUGAUUUUGAUUTT against Gpr63 the z-score was inactive: -0.628. For GGUCUUUUCACAUACAUAUTT against Fstl1, the z-score was inactive: 0.199. In the case of GGUGCUCAGGAGGGAAUCUTT against Fdxacb1, the z-score is reported as inactive: 0.324. For GCCUGGAUAGGCUUAAAGATT against Dpep2, the z-score was inactive: -0.267. For GCUUUCGGACUACAGAGGGTT against Prdx2, the z-score was inactive: -0.459. For GGCAAAAUAAAGCUUAAGGTT against Robo3, the z-score was inactive: -0.517. With GAGAAUCCAGAACUCCAAUTT against Olfr952 the z-score was inactive: 0.566. With GGAGAAGAUGUGGAGACAUTT against Edf1 the z-score was inactive: -1.3. For GGAUCCAGUUUUGUUUUUGTT against Slc28a2, the z-score was inactive: 0.325. In the case of GGCCACCAUCCAUGAGAACTT against Kcne2, the z-score is reported as inactive: 0.515. With GCUAGUUCUGAGAGACAGATT against Mup5 the z-score was inactive: -0.261. For GGUCCAAUUAAGGUUUUGUTT against Pias1, the z-score was inactive: 0.817. For GCUCUCCUCAAGUCAAGUGTT against R3hcc1l, the z-score was inactive: -0.166. With GGAAAUAGAGAAGAAAUUGTT against Nsmf the z-score was inactive: 0.225. With GGCUAUCUUGCUGCUGGUUTT against Vmn1r17 the z-score was inactive: 1.08. For GGAGAUGGAGGAGAAAGCATT against Art5, the z-score was inactive: -1.49. For CGAGCAGUGAAGACCAUCUTT against Klk14, the z-score was inactive: -0.151. In the case of CCUCCUGGAAGGGAUCAUGTT against Tmem119, the z-score is reported as inactive: -0.384. With GGCUGUUCGGGUGACUAUUTT against Il17re the z-score was active: -2.83. For GAGCUAUACAAGGCCUACCTT against LOC547349, the z-score was inactive: 0.586. With GGCCCAGAAGUUAUUCCUGTT against Zfp566 the z-score was inactive: -0.57. With CCUACUAUGGCUCAUUUUATT against Rybp the z-score was inactive: 0.216. For GGUGUUGCUUAUCAUCGGCTT against Mrgprh, the z-score was active: -2.03. In the case of GCUUAGACACAUCAAGAGATT against Bend5, the z-score is reported as inactive: -0.382. In the case of GGAUGAGAACUUCAUCCUATT against Ppia, the z-score is reported as inactive: -0.13. In the case of GGUACUCUGGAGCUUCAAGTT against Pagr1a, the z-score is reported as inactive: -1.89. With GGUUCUAUGGCUCUCAAGATT against Ptgir the z-score was inactive: -0.625. With GGUGUCAGAACAAGGUUUGTT against Pdcd5 the z-score was inactive: 1.52. With GGAGCCAGAACUAGAAGCUTT against Nol3 the z-score was inactive: -1.39. In the case of GGCCUUGUUAACAGAACAUTT against Sgo2a, the z-score is reported as inactive: 0.899. For GGAGGUGCUAAGGAGAAGATT against Plagl2, the z-score was inactive: 0.034. For GGAAAACUUGCUUACGCAUTT against Zfp146, the z-score was inactive: 0.68. With GGAUCUAUGAAACCACCGUTT against Gpx8 the z-score was inactive: 0.874. For GCAUGUGAACAUAUUCAAATT against Scaf11, the z-score was inactive: 1.63. In the case of GGUAUUUGCUGAACUGUUUTT against Ckmt1, the z-score is reported as inactive: -0.931. For CGAGAUAGAGUACAUCUUCTT against Vegfa, the z-score was inactive: 0.412. With GGCUCAAGGCACUCAAUACTT against Olfr550 the z-score was inactive: -0.0393. With GUAUCAUACAAUGAUGUCCTT against Olfr176 the z-score was inactive: -0.392. With GGUAGAGAAUUGAAACCUATT against Klhdc10 the z-score was inactive: -0.776. With AACCAGAGGUCCUAAAUACTT against Mmp28 the z-score was inactive: -0.948. In the case of CGGACUUACCAAAAGCGCATT against Lss, the z-score is reported as active: 3.16. In the case of AGUCACAGUAAUCUCCUACTT against Platr25, the z-score is reported as inactive: -0.872. For GGCCAUGGUUUCAAAAACATT against Rspo2, the z-score was inactive: -1.33. With GGCCCUUUGAAGAGAAUCGTT against Hnrnpul1 the z-score was inactive: -0.771. With GGAUUUAAAAGAGGCAGAATT against Sil1 the z-score was inactive: 0.159. With GCAGCAUCCCUACACGUUCTT against Galnt2 the z-score was inactive: 0.281. For CCACUUCUCUAAGACAAUCTT against Acox3, the z-score was inactive: -0.107. In the case of GCUACCAAUAGGAAUAAAATT against Vmn1r226, the z-score is reported as inactive: 0.965. With CCCACUUCCGAUCCAAAGATT against Zfp593 the z-score was inactive: 0.936. With GGUCAAGACUAGCUACUUUTT against Gsdme the z-score was inactive: -0.917. For GGUGGCUUAGCACGAAGCATT against Elk1, the z-score was inactive: 0.0968. In the case of GCUACCCUGAAUGCAACGUTT against Slc13a5, the z-score is reported as inactive: -0.291. For GGAACUGGAAAUCUCAGAGTT against Pcdh12, the z-score was inactive: 0.447. With CCUUUGUUCCACAUAAUAATT against Vmn1r10 the z-score was inactive: -0.738. With CGGUAGAGCGCAAAGAUUATT against Nefm the z-score was inactive: 0.0814. With GCCACAUUGGAAGUAUCGATT against Pdk4 the z-score was inactive: -0.613. In the case of GCACGUAUGCUCUUUCUCATT against Pigw, the z-score is reported as active: -2.52. In the case of GGUUUCUUUGCCUACCCAGTT against Prrc2b, the z-score is reported as inactive: -1.13. For CCUUCAACUUCCAUUUUUCTT against Ugt2b36, the z-score was inactive: -1.28. In the case of CGUGUGGUUAGUACCUAAUTT against Grin2c, the z-score is reported as inactive: 1.23. For GGAAUCUUCCAGAACUAAATT against Rufy1, the z-score was inactive: 0.912. In the case of GCCUGCUCUUGAAGGAUAATT against Ptpn9, the z-score is reported as inactive: -0.635. With GGACAACAUUGCUAAAUUUTT against Ces1e the z-score was inactive: 0.0577. In the case of GCCAAAUUCUGGCUUCUUCTT against Cdc26, the z-score is reported as inactive: 1.15. With GCUGUAGCUCCAACAAUUUTT against Olfr1442 the z-score was inactive: -0.908. With GCAGUCUUCCCUCAUCCUUTT against Cox8a the z-score was inactive: 1.74. In the case of GGAGGCCCUCAUGAAACGUTT against Ctc1, the z-score is reported as inactive: 1.01. With GCAGUUACAAGACUCCUUGTT against Ctnna3 the z-score was inactive: 0.268. In the case of GGAGCCACAGAACAUAUUATT against Pinx1, the z-score is reported as inactive: 0.497. With GCUGAUUAUCACAUCAGUGTT against Dph1 the z-score was inactive: 1.22. For GGGUUUUGUCAAUCAAAUATT against Dimt1, the z-score was inactive: 0.68. With GGCUGACAAUGUUAAAAGUTT against Nucks1 the z-score was inactive: -1.77. In the case of GGUCUUUAUACAGAGAUAATT against Naa15, the z-score is reported as inactive: -0.495. In the case of GGAGAACCAUAAUAAGAGUTT against Tnfrsf26, the z-score is reported as active: -2.88. In the case of GGCUAUUUGAAAACCAACUTT against Apmap, the z-score is reported as inactive: -0.369. With GGAAAACCACCAUUUUAUGTT against Zfp36l1 the z-score was inactive: 0.746. In the case of GGUUGCUAUGAUUUUUGUUTT against Itsn1, the z-score is reported as inactive: 0.52. With GGGCCAAUAGGAGUUCUUUTT against Tcf20 the z-score was inactive: 0.285. For GCUUUAGGAAAUUUUGUGUTT against Ska3, the z-score was inactive: -1.05. For CGGUGACAUUUGUGAAACUTT against Smn1, the z-score was active: -2.05. In the case of GGAAACCAUCGAGCAAGAGTT against Tmsb15a, the z-score is reported as inactive: 0.26. For CGAGGUCAUUCACUCUCGUTT against Hapln2, the z-score was inactive: -0.286. For GCAAUAGGAAGACCACUUATT against Rhno1, the z-score was inactive: -1.46. For GGGAUUGCCGGACAUGGAUTT against Maco1, the z-score was inactive: -1.27. With GGUACCCUUAUUGGAUAUUTT against Slc30a5 the z-score was inactive: 1.59. In the case of GGAUAUGCUUAGAUAGACCTT against Galk2, the z-score is reported as inactive: -0.127. With GCUCGAAUGUGUAAAGACGTT against Csnk1e the z-score was inactive: 0.982. For GGCUGUUUUCUAUCCUAGGTT against Cd207, the z-score was active: -2.82. In the case of GGAAGAUGAUUUUGACAAUTT against Pcdh18, the z-score is reported as inactive: -0.637. For “GCUGGAUCUACCUAUUCAATT against 4921509C19Rik”, the z-score was inactive: 0.0442. For GCCUGUGUGUUGCUGUAAGTT against Krtap5-1, the z-score was inactive: 0.181.
